From patent US20220401428A1, “Method for Treatment of Alzheimer's Disease” (University of Kentucky Research Foundation, priority 2019, published 2022)

Test system: AD rats
Test: Chronic intravenous infusion of aggregated human amylin in AD rats
Format: in vivo, rat

human amylin
amylin-positive neurons in the brain (AD rats intravenously infused with human amylin): Patchy areas of amylin-positive neurons were found
amylin and hypoxia markers in the brain vasculature (AD rats, 60 μg/kg intravenously every 3rd day for 2 months, vs AD control rats): accumulated amylin and hypoxia markers in the brain vasculature
